Measurements published in article doi:10.1101/201277 (bioRxiv, 2017).
For some assays here: Tags and fusion partners may be left off the protein sequences shown. For some assays here: For at least one entry, the source does not settle the construct or the ends of the probe. For some assays here: The comparison behind a weaker result is the experiment's own reference, which may not be listed here. For some assays here: At least one verdict was read from the data and is not stated in words by the source.

Tests used:
[1] = biological target: T1, Cra (FruR) (Escherichia coli strain 3.300 (Hfr(PO1), lacI22)) (UniProt P0ACP1); assay: filter binding; conditions: 1 mM fructose-1-phosphate; residues 1-334
T1 sequence (looked up): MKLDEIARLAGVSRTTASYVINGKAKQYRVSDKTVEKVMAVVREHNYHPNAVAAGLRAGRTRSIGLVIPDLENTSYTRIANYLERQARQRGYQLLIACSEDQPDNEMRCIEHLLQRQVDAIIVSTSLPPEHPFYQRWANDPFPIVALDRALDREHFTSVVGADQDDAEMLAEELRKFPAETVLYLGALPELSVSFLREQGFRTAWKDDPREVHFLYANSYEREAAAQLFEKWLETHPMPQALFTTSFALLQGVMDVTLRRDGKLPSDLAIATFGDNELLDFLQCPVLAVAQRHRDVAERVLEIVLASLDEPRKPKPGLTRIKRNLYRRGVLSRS

[2] = system: Cra (FruR) + FruK (fructose-1-kinase, 1-phosphofructokinase); assay: BLI
[3] = biological target: T1, Cra (FruR) (Escherichia coli strain 3.300 (Hfr(PO1), lacI22)); assay: BLI; conditions: residues 1-334

Row | Sequence | Kd [1] [nM] | binding result ([2]; 1 mM F-1-P) | binding result ([2]; 10 mM F-1,6-BP, signal increased) | binding result ([3]; 1 mM F-1-P) | binding result ([3]; 10 mM F-1,6-BP)
1 | TGTTGTGTGGGCTGAATCGCTTAACGTCACACAGG (double strand) [aceB operator (filter binding)] | > 100 | – | – | – | –
2 | ATGCATGTTGTGTGGCCTGAATCAATTCAGCTCACACAGGTGTCC (double strand) [pfkA operator (BLI)] | – | binds more weakly | binds | binds more weakly | binds more weakly
3 | ATGCATGTTGTGTGGGCTGAATCGCTTAACGTCACACAGGTGTCC (double strand) [aceB operator (BLI)] | – | binds more weakly | – | binds more weakly | binds more weakly
4 | ATGCATGTTGTGTGGTTCTTGAAACGTTTCAGCTCACACAGGTCC (double strand) [fruB proximal operator (BLI)] | – | binds more weakly | – | binds more weakly | binds more weakly
